{
  "sequences": {"note": "Sequences of proteins named here, by UniProt entry; tags and fusion partners are left off. A change or cut given only in a name is not applied to a line headed by its entry.", "UniProt P51450": "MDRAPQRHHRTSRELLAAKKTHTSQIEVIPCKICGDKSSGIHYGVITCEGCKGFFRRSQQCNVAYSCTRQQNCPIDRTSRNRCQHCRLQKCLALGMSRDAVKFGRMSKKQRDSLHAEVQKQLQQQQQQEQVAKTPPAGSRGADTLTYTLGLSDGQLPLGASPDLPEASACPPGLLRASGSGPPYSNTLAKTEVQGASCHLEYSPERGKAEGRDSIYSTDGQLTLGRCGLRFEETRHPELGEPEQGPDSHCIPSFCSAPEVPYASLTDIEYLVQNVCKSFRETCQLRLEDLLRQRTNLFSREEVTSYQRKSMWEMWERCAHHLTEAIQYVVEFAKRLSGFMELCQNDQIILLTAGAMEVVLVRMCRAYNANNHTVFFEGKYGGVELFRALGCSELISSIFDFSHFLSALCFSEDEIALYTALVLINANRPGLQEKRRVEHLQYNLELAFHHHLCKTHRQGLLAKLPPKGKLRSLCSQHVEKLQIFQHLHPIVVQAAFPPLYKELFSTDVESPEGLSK"},
  "source": "PubChem BioAssay AID2551",
  "about": "(National Center for Advancing Translational Sciences (NCATS), 2010)",
  "note": "Screen size: about 310,000 compounds; about 17,000 (5.5%) were called active. Inconclusive means that the source gave no clear call. Such entries were picked first, then a sample of the others. Calls come from the whole dose curve; as a rule, active = well fitted inhibition curve with a large enough effect; inconclusive = small, poorly fitted or top-dose-only effect, or effect the other way; inactive = no such curve, though single readings can be large or run the other way. Potencies beside an inconclusive call are fits to weak or partial responses and may not hold up. % is set by controls: 0 for no effect and ±100 for the full control effect; potency is the fitted concentration of half-maximal effect.",
  "data": [
    {"biological_target": "Nuclear receptor ROR-gamma (Mus musculus) (UniProt P51450)", "assay": "qHTS for inhibitors of ROR gamma transcriptional activity; note: nearly all actives have a fitted effect of over 60% in size", "conditions": "Drosophila S2 Gal4-RORgamma UAS-luciferase reporter, 20 h; activity change, negative = inhibition: at 53.6 µM (top of the series)", "how_it_was_run": "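Luminescence from a UAS-regulated Photinus luciferase reporter in stably transfected Drosophila Schneider cells is measured; decreased signal marks ROR gamma inhibition. Fusion expression is induced by 700 uM copper sulfate for 20 hr.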", "values": [
      {"smiles": "Cn1ccnc1COc1ccc(C=O)cc1", "Potency": "inconclusive: 11.2 µM [inhibitor, single point]"},
      {"smiles": "O=C1NC(=S)CN1c1ccccc1", "Potency": "inconclusive: 17.8 µM [inhibitor, single point]"},
      {"smiles": "Cc1ccccc1CS(=O)(=O)Cc1ccc(C(=O)NCc2ccccn2)o1", "Potency": "inconclusive: 8.91 µM [inhibitor, partial curve, poor fit]"},
      {"smiles": "Cc1cc(C)n(-c2nc3ccccc3c(=O)n2OC2CCCCC2)n1", "Potency": "inconclusive: 15.8 µM [inhibitor, single point]"},
      {"smiles": "CCOC(=O)c1cc(S(=O)(=O)N2CCOCC2)cn1C", "activity change, negative = inhibition": "inactive: 0.459%"},
      {"smiles": "C=CCSC1=C(C#N)C(c2ccccc2Cl)C(C(=O)c2cccs2)C(O)(C(F)(F)F)N1", "note": "(configuration not stated)", "Potency": "inconclusive: 20 µM [inhibitor, single point]"},
      {"smiles": "O=C(/C=C/c1ccccc1)Nc1ccc2c(c1)OCCO2", "Potency": "active: 10 µM"},
      {"smiles": "CCCCNS(=O)(=O)c1ccc2nc(SCC(=O)Nc3cccc(F)c3)[nH]c2c1", "Potency": "inconclusive: 25.1 µM [activator, single point]"},
      {"smiles": "Cc1ccccc1Nc1nc(N)nc(COc2ccc(C#N)cc2)n1", "activity change, negative = inhibition": "inactive: 35%"},
      {"smiles": "O=S(=O)(C/C(=C/CO)S(=O)(=O)c1ccccc1)c1ccccc1", "Potency": "active: 3.98 µM"},
      {"smiles": "S=c1[nH]nc(COc2ccccc2)n1-c1ccccc1", "Potency": "active: 3.98 µM"},
      {"smiles": "Cc1ccc(NC(=S)NC(=O)C2CC2)c(C)c1", "Potency": "active: 5.01 µM"},
      {"smiles": "Cc1nc(C)c(C(=O)N2CCCC(CCC(=O)NCc3ccc(F)c(F)c3)C2)s1", "note": "(configuration not stated)", "Potency": "inconclusive: 12.6 µM [activator, single point]"},
      {"smiles": "CCCCC[n+]1ccn(-c2nc3ccccc3nc2[N-]S(=O)(=O)c2ccc(C)cc2)c1", "Potency": "inconclusive: 3.98 µM [activator, full curve]"},
      {"smiles": "COC(CNC(=O)c1cn(C)c2ccc(S(=O)(=O)N(C)C3CCCCC3)cc2c1=O)OC", "activity change, negative = inhibition": "inactive: 5.24%"},
      {"smiles": "Cc1nc2cnc(Nc3ccccc3)nc2n(CCc2ccccc2)c1=O", "activity change, negative = inhibition": "inactive: 10.6%"},
      {"smiles": "COc1cccc(C(=O)NCCSc2c(C)[nH]c3ccccc23)c1OC", "activity change, negative = inhibition": "inactive: 39.2%"},
      {"smiles": "CC(=O)NC(=S)Nc1ccc(NC(=S)NC(=O)c2ccc([N+](=O)[O-])cc2)cc1", "Potency": "inconclusive: 6.31 µM [inhibitor, full curve, poor fit]"},
      {"smiles": "COc1cccc(N2CN(CCc3ccccc3)CNC2=S)c1", "Potency": "active: 14.1 µM"},
      {"smiles": "COc1ccc(CCC(C)Nc2ccc(F)c(F)c2)cc1", "note": "(configuration not stated)", "Potency": "inconclusive: 17.8 µM [activator, partial curve, poor fit]"},
      {"smiles": "NC(=O)c1oc2ccccc2c1NC(=O)c1ccc([N+](=O)[O-])o1", "Potency": "inconclusive: 10 µM [inhibitor, partial curve]"},
      {"smiles": "Cc1ccc(O)c(N=NC2=C(O)CC(C)(C)CC2=O)c1", "Potency": "active: 7.94 µM"},
      {"smiles": "CCOc1ccccc1CN1CCN(Cc2[nH]c3ccccc3c2C)CC1CCO", "note": "(configuration not stated)", "Potency": "inconclusive: 14.1 µM [inhibitor, single point]"},
      {"smiles": "COc1cc(NCCCCCCCN)c2ncccc2c1", "Potency": "active: 1.58 µM"},
      {"smiles": "CCOC(=O)c1ccc(NC(=S)N2CCN(Cc3ccccc3)CC2)cc1", "Potency": "inconclusive: 35.5 µM [inhibitor, single point]"},
      {"smiles": "c1cncc(-c2nc(NCCN3CCOCC3)c3ccccc3n2)c1", "activity change, negative = inhibition": "inactive: -13.6%"},
      {"smiles": "COc1cc(C(=S)N2CCOCC2)ccc1OC(=O)c1ccc([N+](=O)[O-])cc1[N+](=O)[O-]", "Potency": "inconclusive: 25.1 µM [inhibitor, single point]"},
      {"smiles": "Cn1c(NC(=O)CC2CCCCC2)cc(=O)n(C)c1=O", "Potency": "inconclusive: 15.8 µM [activator, single point]"},
      {"smiles": "CN(C)CCNC(=S)Nc1ccc(Cl)cc1Cl", "activity change, negative = inhibition": "inactive: -21.3%"},
      {"smiles": "CCCC[n+]1c(C)sc2ccc(C)cc21", "activity change, negative = inhibition": "inactive: 0.0884%"},
      {"smiles": "COc1ccc(C2(O)CCN(Cc3nnnn3Cc3ccc(F)cc3)CC2)cc1", "Potency": "inconclusive: 2.51 µM [inhibitor, partial curve, poor fit]"},
      {"smiles": "S=C1NCN(Cc2ccco2)CN1CCc1ccccc1", "Potency": "active: 2.24 µM"},
      {"smiles": "O=C(CSc1ncnc2ccccc12)Nc1ccc2c(c1)OCCO2", "activity change, negative = inhibition": "inactive: 16.8%"},
      {"smiles": "CCOc1ccc(NC(=O)CSc2ncc(-c3ccc(F)cc3)n2Cc2ccco2)cc1", "Potency": "inconclusive: 2.82 µM [inhibitor, full curve, poor fit]"},
      {"smiles": "Fc1ccc(/C=N/n2c(C3CCCCC3)n[nH]c2=S)cc1", "Potency": "active: 3.55 µM"},
      {"smiles": "CCCCOc1ccc(S(=O)(=O)Nc2cc(OC)ccc2OC)cc1", "activity change, negative = inhibition": "inactive: 43.4%"},
      {"smiles": "CCN(CC(=O)NCc1cccs1)C(=O)CCc1c[nH]c2ccccc12", "Potency": "inconclusive: 35.5 µM [inhibitor, single point]"},
      {"smiles": "NC(=O)C1CCCN1C(=O)C(Cc1cnc[nH]1)NC(=O)C1CCC(=O)N1", "note": "(configuration not stated)", "activity change, negative = inhibition": "inactive: -2.14%"},
      {"smiles": "NS(=O)(=O)c1ccc(N=C2C(=O)Nc3ccccc32)cc1", "activity change, negative = inhibition": "inactive: 4.79%"},
      {"smiles": "COc1cc(NC(=O)c2cc3ccccc3cc2O)c(OC)cc1Cl", "Potency": "inconclusive: 5.62 µM [inhibitor, full curve, poor fit]"},
      {"smiles": "CCn1c(-c2csc3ccccc23)n[nH]c1=S", "Potency": "active: 6.31 µM"},
      {"smiles": "COc1ccccc1CNC(=S)Nc1ccc2nc(N3CCN(C)CC3)cc(C)c2c1", "activity change, negative = inhibition": "inactive: 9.2%"},
      {"smiles": "COc1ccc(CCNC(=O)c2[nH]c(C)c(C(C)=O)c2C)cc1OC", "Potency": "inconclusive: 15.8 µM [activator, single point]"},
      {"smiles": "CC(=O)c1ccc(N2CCN(C(=O)Cc3ccccc3)CC2)c(F)c1", "Potency": "inconclusive: 20 µM [activator, single point]"},
      {"smiles": "CC1=C(C(=O)OC(C)C)C(c2ccc(C)o2)NC(=O)N1", "note": "(configuration not stated)", "activity change, negative = inhibition": "inactive: 3.82%"},
      {"smiles": "COc1cc(NC(=O)C(C)C)ccc1NC(=O)c1ccco1", "Potency": "inconclusive: 0.355 µM [activator, partial curve, poor fit]"},
      {"smiles": "O=S(=O)(c1cccs1)N1CCN(c2cccc(Cl)c2)CC1", "activity change, negative = inhibition": "inactive: 44.4%"},
      {"smiles": "COc1ccc(NS(=O)(=O)c2cccc(C(=O)NC3CCC(O)CC3)c2)cc1", "note": "(configuration not stated)", "Potency": "inconclusive: 3.55 µM [activator, partial curve]"},
      {"smiles": "CCOC(=O)c1nc(SC)n(C)c1C(=O)OCC", "activity change, negative = inhibition": "inactive: 25.9%"},
      {"smiles": "COC(=O)[C@@H](Cc1c[nH]c2ccccc12)NC(=O)C1CCCN(S(=O)(=O)c2ccc(C)cc2)C1", "note": "(some centres not stated)", "Potency": "inconclusive: 22.4 µM [activator, single point]"},
      {"smiles": "CC1=CCC(C(=O)O)C(C(=O)Nc2nc3ccc(S(C)(=O)=O)cc3s2)C1", "note": "(configuration not stated)", "Potency": "inconclusive: 0.0056 µM [inhibitor, full curve, poor fit]"},
      {"smiles": "Cc1cccc(-c2nnc(SCC(=O)N3CCCC3)o2)c1", "activity change, negative = inhibition": "inactive: -29.1%"},
      {"smiles": "O=C(c1ccccc1)N(NC(=O)C(O)(c1ccccc1)c1ccccc1)c1cccc(F)c1", "activity change, negative = inhibition": "inactive: -6.91%"},
      {"smiles": "COc1ccccc1-c1ccc(SCc2ccc(F)cc2)nn1", "activity change, negative = inhibition": "inactive: -28%"},
      {"smiles": "Cc1ccc(OCC(=O)Nc2ccc3c(c2)nc(CCN2CCN(C)CC2)n3C)cc1", "activity change, negative = inhibition": "inactive: 13.9%"},
      {"smiles": "CCOc1cc(CC(=O)N[C@@H](CC(C)C)c2ccccc2N2CCCCC2)ccc1C(=O)O", "Potency": "inconclusive: 35.5 µM [activator, single point]"},
      {"smiles": "CC1CCc2sc(C(=O)N/N=C/C3CCCCC3)cc2C1", "note": "(configuration not stated)", "Potency": "inconclusive: 35.5 µM [inhibitor, single point]"},
      {"smiles": "CSc1oc(-c2ccccc2)nc1S(=O)(=O)c1ccc(F)cc1", "Potency": "inconclusive: 7.94 µM [inhibitor, partial curve]"},
      {"smiles": "Nc1nonc1N/N=C\\c1ccccc1", "activity change, negative = inhibition": "inactive: 14.2%"},
      {"smiles": "Cc1cc(NCc2ccccn2)n2nc(C)c(-c3ccc(Cl)cc3)c2n1", "Potency": "active: 0.0631 µM"},
      {"smiles": "COC(=O)C1(C(=O)OC)C/C=C\\C/C=C\\c2ccccc2[C@@H]1C[N+](=O)[O-]", "Potency": "inactive"},
      {"smiles": "COc1ccc(C(=O)NC(=S)NC2CCSC2=O)cc1", "note": "(configuration not stated)", "Potency": "inconclusive: 35.5 µM [inhibitor, single point]"},
      {"smiles": "CCN1C(=O)CC(Sc2ccccc2C(=O)O)C1=O", "note": "(configuration not stated)", "Potency": "inconclusive: 15.8 µM [inhibitor, single point]"},
      {"smiles": "CCC(C)n1cnc2c(c1=O)c1nc3ccccc3nc1n2Cc1ccc(OC)cc1", "note": "(configuration not stated)", "Potency": "inconclusive: 20 µM [activator, single point]"},
      {"smiles": "COc1ccc(NC(=O)c2ccc(NS(=O)(=O)c3c(C)noc3C)cc2)cc1OC", "activity change, negative = inhibition": "inactive: 0.578%"},
      {"smiles": "CCC(Oc1ccccc1)C(=O)Nc1nc2ccccc2[nH]1", "note": "(configuration not stated)", "Potency": "active: 10 µM"},
      {"smiles": "CCC(C)NC(=O)CSc1nc2ccc(N3CCOCC3)cc2c(=O)n1CCc1ccccc1", "note": "(configuration not stated)", "Potency": "active: 7.94 µM"},
      {"smiles": "Cc1cc(C)c2nc(-c3ccccn3)cc(C(=O)Nc3ccc(S(=O)(=O)Nc4onc(C)c4C)cc3)c2c1", "Potency": "inconclusive: 12.6 µM [activator, partial curve, poor fit]"},
      {"smiles": "O=C(CSc1nc2ncc(Br)cc2[nH]1)Nc1ccccc1-c1ccccc1", "Potency": "inconclusive: 22.4 µM [inhibitor, single point]"},
      {"smiles": "Cc1cccc(NC(=S)N(c2ccccc2)C(C)C)c1C", "Potency": "active: 14.1 µM"},
      {"smiles": "CCC(CC)c1nnc(NC(=O)C2COc3ccccc3O2)s1", "note": "(configuration not stated)", "Potency": "active: 10 µM"},
      {"smiles": "COc1ccc(-c2csc3nc(C)nc(N4CCCCC4)c23)cc1OC", "Potency": "active: 10 µM"},
      {"smiles": "N#Cc1c(C(F)(F)F)cc(-c2ccc(F)cc2)[nH]c1=O", "Potency": "inconclusive: 35.5 µM [inhibitor, single point]"},
      {"smiles": "COc1cccc(C2C(C(=O)c3cc4ccccc4o3)=C(O)C(=O)N2c2cc(C)on2)c1", "note": "(configuration not stated)", "activity change, negative = inhibition": "inactive: -0.0878%"},
      {"smiles": "CN(Cc1ccc2nonc2c1)Cc1nc(Cc2cccc(F)c2)no1", "Potency": "inconclusive: 15.8 µM [activator, partial curve]"},
      {"smiles": "CCOC(=O)C1CCCN(S(=O)(=O)c2ccc(C)cc2)C1", "note": "(configuration not stated)", "Potency": "inconclusive: 11.2 µM [activator, partial curve, poor fit]"},
      {"smiles": "N#CCC(=O)Nc1ccc(C(=O)OCC(=O)Nc2cccc(C(F)(F)F)c2)cc1", "Potency": "inconclusive: 35.5 µM [activator, single point]"}
    ]}
  ]
}
